Laboratory results: PubChem BioAssay AID1671190 (National Center for Advancing Translational Sciences (NCATS), 2021)
“And” between values parts separate entries of the source, which are not always exact repeats. Equal values may be shown once. The campaign covered roughly 580,000 compounds. About 6,100 (1.1%) were called active. The inconclusive results got no clear call from the source; some entries with a clear call stand among them for comparison. Calls come from the whole dose curve; as a rule, active = well fitted inhibition curve with a large enough effect; inconclusive = small, poorly fitted or top-dose-only effect, or another doubt; inactive = no such curve, though single readings can be large or run the other way. Potencies beside an inconclusive call are fits to weak or partial responses and may not hold up.

Sequences of proteins named here, by UniProt entry; tags and fusion partners are left off.
UniProt P18054, whole entry, looked up: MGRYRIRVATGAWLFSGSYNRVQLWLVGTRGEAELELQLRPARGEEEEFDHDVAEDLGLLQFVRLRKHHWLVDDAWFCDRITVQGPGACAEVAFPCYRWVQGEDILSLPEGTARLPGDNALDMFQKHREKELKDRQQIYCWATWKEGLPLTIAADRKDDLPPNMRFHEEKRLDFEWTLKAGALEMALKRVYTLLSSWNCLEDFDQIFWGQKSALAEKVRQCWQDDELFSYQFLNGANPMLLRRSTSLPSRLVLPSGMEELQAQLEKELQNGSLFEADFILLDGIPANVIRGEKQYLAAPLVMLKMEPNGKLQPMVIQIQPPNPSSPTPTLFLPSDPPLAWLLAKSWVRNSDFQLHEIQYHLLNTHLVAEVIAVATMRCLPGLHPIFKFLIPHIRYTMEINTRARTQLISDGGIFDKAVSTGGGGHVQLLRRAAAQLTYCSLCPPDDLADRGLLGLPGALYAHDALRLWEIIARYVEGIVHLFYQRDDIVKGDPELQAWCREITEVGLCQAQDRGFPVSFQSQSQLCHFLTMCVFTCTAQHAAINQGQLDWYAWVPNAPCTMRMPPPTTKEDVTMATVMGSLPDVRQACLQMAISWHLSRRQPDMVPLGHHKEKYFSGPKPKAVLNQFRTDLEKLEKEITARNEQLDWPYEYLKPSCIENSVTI

Target: Polyunsaturated fatty acid lipoxygenase ALOX12 (Homo sapiens) (UniProt P18054)
Test: Primary qHTS assay for inhibitors of human arachidonate 12S-lipoxygenase (ALOX12): Round 2
Conditions: purified 12hLO, xylenol orange hydroperoxide absorbance; series mostly up to 108 µM
Method in brief: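 Hydroperoxide product was detected by ferrous iron/xylenol orange as the 573 to 405 nm absorbance ratio. Arachidonic acid at 40 uM (final) was turned over for 30 min at room temperature by 150 nM human 12hLO, pH 7.0 Hepes buffer, after 15 min compound preincubation.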
Potency is the fitted concentration of half-maximal effect.

SMILES	Potency
O=S(=O)(Nc1cc(Cl)ccc1-n1cncn1)c1ccccc1Cl	inconclusive: 44.7 µM [inhibitor, partial curve, poor fit]
COCc1nc(C2CCN(C(=O)c3ccccn3)C2)no1 (stereo not given)	inactive
NC(=O)Cn1nc(-c2cccc([N+](=O)[O-])c2)c2ccccc2c1=O	inconclusive: 89.1 µM [inhibitor, single point]
Cc1cccc(NC(=O)C2CCCN(S(=O)(=O)c3cccc4nonc34)C2)c1C (stereo not given)	inconclusive: 100 µM [inhibitor, partial curve, poor fit]
CN(c1ccccc1)c1ccc2nnc(-c3cc(C(=O)N4CCCCC4)ccn3)n2n1	inconclusive: 28.2 µM [inhibitor, full curve, poor fit]
Cc1nc(N)c(C#N)c(-c2ccc3c(c2)OCO3)c1C	inactive
c1ccc(-n2nnnc2SCc2nc3ccccc3[nH]2)cc1	inactive
CN(C)c1ccc(C=NNc2nc3c([nH]2)c(=O)n(C)c(=O)n3C)cc1	inactive
Nc1c(Br)cc(Br)c2c1-c1ccc([N+](=O)[O-])cc1C2	inconclusive: 89.1 µM [inhibitor, partial curve, poor fit]
O=C(Nc1cccc(NC(=O)c2ccc3c(c2)OCO3)c1)c1ccccc1	inactive
O=C1Cc2cc(C(=O)CSc3nnc(-c4cccc(F)c4)o3)c(Cl)cc2N1	inactive
CCN1CCC(N(Cc2ccc3c(c2)OCO3)C(=O)Nc2cc(Cl)ccc2C(=O)OC)CC1	inconclusive: 44.7 µM [inhibitor, partial curve]
CCOc1cc(CNCc2cccs2)cc(Br)c1OCC	inactive
Cc1cc2oc(=O)cc(CN(C)Cc3ccccc3)c2cc1Cl	inconclusive: 44.7 µM [inhibitor, partial curve, poor fit]
Cc1cc(C(=O)N2CCCC(N3CCN(c4ccc(F)cc4)CC3)C2)c(C)o1 (stereo not given)	inactive
CC(C)Oc1ccc(C(CC(=O)O)NC(=O)c2ccc(C(C)(C)C)cc2)cc1 (stereo not given)	inconclusive: 50.1 µM [inhibitor, partial curve, poor fit]
C[C@@H]1CN([C@H](C)CO)S(=O)(=O)c2ccc(C#Cc3ccccc3F)cc2O[C@H]1CN(C)C(=O)c1ccc2c(c1)OCO2	inconclusive: 89.1 µM [inhibitor, single point]
COCCCNC(=O)CC(c1ccc(Cl)cc1)c1c[nH]c2ccccc12 (stereo not given)	inconclusive: 39.8 µM [inhibitor, partial curve, poor fit]
N=c1oc2ccccc2cc1C(=O)NC1CCCCCC1	inactive
CCOCC(=O)Nc1nc2c(s1)C(=O)CC(C)(C)C2	inconclusive: 0.501 µM [inhibitor, full curve, poor fit]
Cc1cc(=O)oc2cc(O)cc(OCc3ccccc3)c12	inconclusive: 79.4 µM [inhibitor, single point]
CCc1nnc(NC(=O)c2cc(-c3ccc(C)o3)nc3ccccc23)s1	active: 3.16 µM and active: 6.31 µM
N#Cc1ccccc1COc1ccccc1C(N)=O	inconclusive: 50.1 µM [inhibitor, partial curve, poor fit]

Given comma-delimited: part of the list above.
SMILES,Potency
CN(c1ccccc1)c1ccc2nnc(-c3cc(C(=O)N4CCCCC4)ccn3)n2n1,"inconclusive: 28.2 µM [inhibitor, full curve, poor fit]"
CN(C)c1ccc(C=NNc2nc3c([nH]2)c(=O)n(C)c(=O)n3C)cc1,inactive
Cc1cc(C(=O)N2CCCC(N3CCN(c4ccc(F)cc4)CC3)C2)c(C)o1 (stereo not given),inactive

Further results:

SMILES	Potency
COc1cccc(-c2sc3ccc(OC)cc3c2C#CCC(C)O)c1 (stereo not given)	inconclusive: 39.8 µM [inhibitor, partial curve]
CN(C)c1ccc(/C=C/c2nc3ccccc3c(=O)[nH]2)cc1	inactive
COc1ccc(-c2cn3c(n2)sc2cc(C(=O)NC4CCCc5ccccc54)ccc23)cc1 (stereo not given)	inconclusive: 89.1 µM [inhibitor, partial curve, poor fit]
CCCOC(=O)c1c(C)oc2c1cc(NS(=O)(=O)c1ccc(OCC)cc1)c1ccccc12	inconclusive: 50.1 µM [inhibitor, partial curve, poor fit]
O=C(CCNC(=O)c1ccc(Br)cc1)Nc1cccc(S(=O)(=O)N2CCCCCC2)c1	inactive
CCC(=O)N1CCCC1Cc1ccccc1 (stereo not given)	inactive
COc1ccc(C(=O)N2CCC3(CC2)CCN(c2ccccc2)CC3)cc1	inconclusive: 20 µM [inhibitor, partial curve, poor fit]
O=C(Nc1ccc(Br)cn1)c1coc(=O)c(Br)c1	inactive
Cc1ccc(S(=O)(=O)N2CCC(CC(=O)NCc3ccccc3)C2)c(C)c1 (stereo not given)	inconclusive: 35.5 µM [inhibitor, partial curve]
C=CCn1c(SCC(=O)NC(=O)c2cccc([N+](=O)[O-])c2)nnc1-c1ccccc1	inconclusive: 50.1 µM [inhibitor, partial curve, poor fit]
O=C(Nc1ccccc1)N1CCc2ccccc2C1	inactive
N#C/C(=C\c1ccc(OC(=O)C2CC2)cc1)C(=O)Nc1cccc(C(F)(F)F)c1	inconclusive: 6.31 µM [inhibitor, full curve, poor fit]
CCN(C(=O)CCc1nc(-c2ccc(C)cc2)no1)c1cc(C)ccc1C	inactive
COc1cccc(C(=Cc2ccc([N+](=O)[O-])cc2)C(=O)O)c1	inactive
COC(=O)CSc1nc2c(c(=O)[nH]c(=O)n2C)n1Cc1ccccc1	inconclusive: 70.8 µM [inhibitor, partial curve, poor fit]
COc1ccc(N2CCN(C(=O)c3ccc(S(=O)(=O)N4CCOCC4)cc3)CC2)cc1	inconclusive: 50.1 µM [inhibitor, partial curve, poor fit]
COC(=O)c1ccc(CN)o1	inconclusive: 15.8 µM [inhibitor, full curve, poor fit]
CCCN1C(=O)c2ccccc2NC1c1ccc(Cl)cc1 (stereo not given)	inconclusive: 112 µM [inhibitor, partial curve, poor fit]
COc1ccc(CNCCCSc2ncccn2)cc1OC	inactive
CCc1ccc(NC(=O)CC2C(=O)N(c3cccc(OC)c3)C(=O)N2Cc2ccco2)cc1 (stereo not given)	inactive
Cc1ccc(S(=O)(=O)Nc2ccc3c(c2)C(=O)N([C@@H](C)CO)C[C@@H](C)[C@@H](CN(C)C(=O)NC(C)C)OCCCC[C@H](C)O3)cc1	inactive
CCCc1nc2ccc(C(=O)OC)cn2c1Cc1ccccc1OC	inactive
